Source: PMC9288506, “Compounds activating VCP D1 ATPase enhance both autophagic and proteasomal neurotoxic protein clearance” (Nature Communications, 2022)
These are yes or no findings as the source states them, for the method shown. For some assays here: Binding seen in cells or lysates may run through a third protein. Some results given as binding are weak or reduced against the parent protein; the word gives no strength.

Chains of the proteins cited; added tags and fusions are not shown.
UniProt Q6ZNE5: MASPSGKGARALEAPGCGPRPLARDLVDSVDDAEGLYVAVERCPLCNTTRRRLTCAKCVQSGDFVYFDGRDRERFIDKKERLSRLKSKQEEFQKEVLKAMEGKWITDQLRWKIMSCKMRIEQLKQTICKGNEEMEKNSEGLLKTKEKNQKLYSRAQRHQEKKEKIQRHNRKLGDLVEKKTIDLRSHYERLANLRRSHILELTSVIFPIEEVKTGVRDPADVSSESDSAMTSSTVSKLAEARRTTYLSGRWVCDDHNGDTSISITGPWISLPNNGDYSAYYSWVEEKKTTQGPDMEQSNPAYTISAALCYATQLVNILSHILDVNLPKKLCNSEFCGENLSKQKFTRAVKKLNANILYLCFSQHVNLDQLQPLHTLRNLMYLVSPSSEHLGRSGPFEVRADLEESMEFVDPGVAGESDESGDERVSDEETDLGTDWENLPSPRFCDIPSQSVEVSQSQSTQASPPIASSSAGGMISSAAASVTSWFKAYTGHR

Columns and labels:
[1] = target: ATG14L (Beclin 1-associated autophagy-related key regulator), endogenous (human (endogenous in HeLa)) (UniProt Q6ZNE5); experiment: co-IP; endogenous ATG14L immunoprecipitated from HeLa lysate (Dynabeads Protein A; 20 mM Tris pH 7.4, 2 mM MgCl2, 200 mM NaCl, 0.1% NP-40); cells treated with DMSO, 20 uM SMER28 or 10 uM DBeQ for 6 h; western blot
[2] = target: FLAG-tagged ATG14L (p3XFLAG-ATG14L), purified (UniProt Q6ZNE5); experiment: co-IP; in vitro PI3K assembly: individually purified FLAG-tagged PI3K components (VPS15 and VPS34 purified and added together) incubated alone or with purified VCP and/or 20 uM SMER28, then immunoprecipitation of ATG14L; western blot; both purified

binding [1] | binding [2] | Substance
binds |  | Valosin-containing protein (VCP), endogenous (from UniProt P55072 1-806)
 | binds | purified VCP (from pGEX-VCP-GST, GST tag removed) (from UniProt P55072 1-806)
